The whole screen tested about 580,000 compounds, of which about 6,100 (1.1%) were called active. The inconclusive results got no clear call from the source; some entries with a clear call stand among them for comparison. The call rests on the fitted dose curve; in most records, active means well fitted inhibition curve with a large enough effect; inconclusive means small, poorly fitted or top-dose-only effect, or another doubt; inactive means no such curve, though single readings can be large or run the other way. Potencies of inconclusive entries are doubtful fits and often do not repeat.
Target: Polyunsaturated fatty acid lipoxygenase ALOX12 (Homo sapiens) (UniProt P18054)
Assay: Primary qHTS assay for inhibitors of human arachidonate 12S-lipoxygenase (ALOX12): Round 2
Details: purified 12hLO, xylenol orange hydroperoxide absorbance; activity change, negative = inhibition: at 108 µM (top of the series) unless noted
Summary of the method: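 Purified human 12hLO at 150 nM in 25 mM Hepes, 0.01% Triton X-100, pH 7.0, preincubated 15 min at room temperature with compound. Reaction started with 40 uM arachidonic acid, 30 min at room temperature. Hydroperoxide measured by Fe-xylenol orange, 573/405 nm absorbance ratio.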
On the % scale 0 is the no-effect control and ±100 the full control effect; potency means the concentration at half of the fitted maximal effect.

Amino acid sequences for entries named in this document (tags omitted). A change or cut given only in a name is not applied to a line headed by its entry.
UniProt P18054: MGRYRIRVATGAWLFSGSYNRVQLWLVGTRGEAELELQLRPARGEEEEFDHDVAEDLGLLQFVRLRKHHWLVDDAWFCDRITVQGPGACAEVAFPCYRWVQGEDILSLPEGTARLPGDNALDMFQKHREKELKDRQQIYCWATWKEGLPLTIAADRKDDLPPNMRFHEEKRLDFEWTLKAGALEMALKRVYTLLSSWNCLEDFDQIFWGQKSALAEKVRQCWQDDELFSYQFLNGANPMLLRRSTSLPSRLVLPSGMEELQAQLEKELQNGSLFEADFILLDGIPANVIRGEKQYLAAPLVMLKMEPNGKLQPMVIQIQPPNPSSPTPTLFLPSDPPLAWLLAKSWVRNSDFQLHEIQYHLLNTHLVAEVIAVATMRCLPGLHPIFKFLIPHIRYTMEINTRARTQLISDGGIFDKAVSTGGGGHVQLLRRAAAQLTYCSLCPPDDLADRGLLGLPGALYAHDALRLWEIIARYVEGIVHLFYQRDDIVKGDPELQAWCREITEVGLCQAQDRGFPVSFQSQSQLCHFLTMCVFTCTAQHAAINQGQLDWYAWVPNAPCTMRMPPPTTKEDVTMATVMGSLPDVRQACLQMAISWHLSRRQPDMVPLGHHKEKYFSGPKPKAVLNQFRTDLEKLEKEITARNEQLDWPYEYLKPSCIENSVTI

Compound	Potency	activity change, negative = inhibition
COc1cc(/C=C(\C#N)c2nc3ccc(C)cc3[nH]2)cc([N+](=O)[O-])c1O	active: 44.7 µM	
Cc1ccc(CNC(=O)c2ccc(CSCc3ccc(Cl)cc3)o2)cc1	inconclusive: 89.1 µM [inhibitor, partial curve, poor fit]	
CSc1nc(-c2ccc(Cl)cc2)c(C#N)c(=O)[nH]1	inconclusive: 50.1 µM [inhibitor, partial curve, poor fit]	
Cc1ccc(SCCOCCN2CCc3ccccc3C2)cc1	inconclusive: 8.91 µM [inhibitor, full curve]	
O=C(Nc1cccc(NC(=O)C2CCCC2)c1)C1CCCC1		inactive: 48%
Cc1cccc(/C=N/NC(=O)c2cccs2)c1	inconclusive: 50.1 µM [inhibitor, partial curve, poor fit]	
CCOc1ccc(-n2cc(C(=O)Nc3cccc(C)n3)c3cc(OC)c(OC)cc3c2=O)cc1	inconclusive: 44.7 µM [inhibitor, partial curve, poor fit]	
CNC(=O)c1ccc(CN(C(=O)NCC(F)(F)F)C2CC2)cc1		inactive: 16.2%
CCOC(=O)[C@]12CCC=C1N(Cc1ccco1)C(=O)[C@H](CC(=O)N1CCOCC1)C2	inconclusive: 35.5 µM [inhibitor, single point]	
O=C(/C=C/c1ccco1)NCCc1ccccc1		inactive: -15.8%
Cc1cccc(C(=O)N[C@@H](C)C(=O)O)c1	inconclusive: 63.1 µM [inhibitor, partial curve, poor fit]	
O=C(O)COc1ccc(-c2nccc(-c3ccccn3)n2)cc1	inconclusive: 1.41 µM [inhibitor, full curve, poor fit]	
CCN(CC)c1ccc(NC(=O)c2cnn(CC)c2)cc1		inactive: -28.4%
CN(C)CCSc1nc2cc(S(=O)(=O)N3CCCCC3)ccc2o1	inconclusive: 126 µM [inhibitor, single point]	
CCc1nc(CN2CCCC(C(=O)c3ccc4c5c(cccc35)CC4)C2)c(C)[nH]1 (centres undefined)		inactive: 6.77%
COc1ccc(C2Cn3nnc(C(=O)N4CCC(C(=O)NCCc5cccs5)CC4)c3CO2)cc1 (centres undefined)		inactive: 7.7%
Nc1ccc(C(=O)Nc2cccc(NC(=O)c3ccc(N)cc3)c2)cc1	inconclusive: 79.4 µM [inhibitor, partial curve, poor fit]	
CC1(C)C2CCC1(C)C(OC(=O)c1ccc(O)cc1)C2 (centres undefined)	inconclusive: 100 µM [inhibitor, single point]	
Cc1c(-c2n[nH]c(=S)n2-c2ccc(C(F)(F)F)cc2)nnn1-c1ccccc1	inconclusive: 5.62 µM [inhibitor, full curve]	
COc1ccc(NC(=O)/C(=C\c2ccco2)NC(=O)c2ccco2)cc1	inconclusive: 56.2 µM [inhibitor, partial curve, poor fit]	
O=C(c1cc(Cl)nc2ccccc12)N1CCN(S(=O)(=O)c2cccc(C(F)(F)F)c2)CC1		inactive: 19.8%
Cc1cccc(C)c1NC(=O)c1cc(S(=O)(=O)N2CCc3ccccc32)cn1C		inactive: 39.3%
COc1ccccc1N(C(C)=O)C1=C(Cl)C(=O)c2ccccc2C1=O	active: 14.1 µM	

Compound	Potency	activity change, negative = inhibition
O=C(NC(=C(Cl)Cl)S(=O)(=O)c1ccc(Cl)cc1)c1ccccc1		inactive: -10.6%
CNc1nnc(SCc2nnc(-c3ccccc3Br)o2)s1	inconclusive: 31.6 µM [inhibitor, partial curve, poor fit]	
O=C(CC1CCCC1)NCCCCNC(=O)CC1CCCC1	inconclusive: 7.94 µM [inhibitor, partial curve, poor fit]	
CC(C)CNC(=O)C(C)Oc1ccc(C#N)cc1 (centres undefined)	inconclusive: 35.5 µM [inhibitor, single point]	
CC1(C)Cc2c(sc3ncn4nc(CCC(=O)O)c(=O)nc4c23)CO1	inconclusive: 25.1 µM [inhibitor, partial curve, poor fit]	
C=CCOC(=O)C1C(=O)CC(C)(O)C(C(=O)OCC=C)C1c1ccc(Cl)cc1 (centres undefined)		inactive: -9.19%
O=C(Nc1cc(C(F)(F)F)ccc1Cl)c1cc2nc(-c3ccc4c(c3)OCO4)cc(C(F)(F)F)n2n1	inconclusive: 0.355 µM [inhibitor, full curve]	
Cc1ccc(S(=O)(=O)N(C)c2ccc(C(=O)NCC(c3ccco3)N3CCCC3)cc2)cc1 (centres undefined)	inconclusive: 12.6 µM [inhibitor, full curve, poor fit]	
S=c1[nH]nc(-c2cccc3ccccc23)n1-c1cccnc1	inconclusive: 35.5 µM [inhibitor, partial curve, poor fit]	
O=C(N/N=C/C1CC=CCC1)c1ccc(Cl)cc1O (centres undefined)		inactive: -5.79%
Cc1cnc(CNc2cc(-c3c(C)noc3C)ncn2)cn1		inactive: -20.8%
Cc1ccc(-n2c(-c3ccccc3)n[nH]c2=S)c(C)c1	inconclusive: 50.1 µM [inhibitor, partial curve, poor fit]	
CCC1CCCCN1C(=O)C1CC1 (centres undefined)		inactive: 5.54%
Cc1cc(C(=O)COC(=O)c2ccc(NC(=O)CC#N)cc2)c(C)n1C1CC1		inactive: 12.2%
O=C(Cc1ccccc1Cl)NC1(O)C(=O)c2ccccc2C1=O	inconclusive: 50.1 µM [inhibitor, partial curve, poor fit]	
Cc1ccc(-c2nc(N)sc2-c2ccccc2)cc1C	inconclusive: 79.4 µM [inhibitor, partial curve, poor fit]	
Nc1nc(Cl)cc(N2CCC(c3nc(C4CC4)n[nH]3)CC2)n1		inactive: 24.8%
O=[N+]([O-])c1ccc(C=NN2CCOCC2)s1	inconclusive: 7.08 µM [inhibitor, partial curve, poor fit]	
O=C(NCc1ccccn1)c1ccc(/C=N/O)nc1	inconclusive: 3.16 µM [inhibitor, full curve, poor fit]	
Cc1ccc(CNCc2c(C(=O)O)c(C)n(Cc3ccc(C)cc3)c2C)cc1	inconclusive: 56.2 µM [inhibitor, partial curve, poor fit]	
CCCCCCn1cc(C(=O)O)c(=O)c2ccccc21		inactive: 12%
COc1ccc(/C=C/C(=O)O/N=C(\N)c2cccnc2)cc1OC	inconclusive: 31.6 µM [inhibitor, partial curve, poor fit]	
C=CCN(CC=C)Cc1cc(=O)oc2cc(C)c(C)cc12	inconclusive: 44.7 µM [inhibitor, partial curve, poor fit]	

Shown field by field: entries from further up.
S=c1[nH]nc(-c2cccc3ccccc23)n1-c1cccnc1
  Potency: inconclusive: 35.5 µM [inhibitor, partial curve, poor fit]
O=C(N/N=C/C1CC=CCC1)c1ccc(Cl)cc1O (centres undefined)
  activity change, negative = inhibition: inactive: -5.79%
Cc1cnc(CNc2cc(-c3c(C)noc3C)ncn2)cn1
  activity change, negative = inhibition: inactive: -20.8%

Further structures

Compound	Potency	activity change, negative = inhibition
COc1cc(NS(=O)(=O)c2ccc(C)cc2)c2c(c1N)C(=O)c1ccccc1C2=O	inconclusive: 50.1 µM [inhibitor, partial curve, poor fit]	
COc1ccc2c(c1)C=C([C@@H]1C[C@H]3CN(c4ccccc4)C(=O)[C@]34CCCN14)CO2	inconclusive: 141 µM [inhibitor, partial curve, poor fit]	
Nc1ncccc1CN1CC[C@@H]2OCC(=O)N(c3ccccc3)[C@H]2CC1		inactive: 4.81% [at 176 µM]
N#C/C(=C/c1ccc(-c2ccccc2C#N)o1)c1ccc(F)cc1	inconclusive: 39.8 µM [inhibitor, partial curve]	
CN(Cc1ccccc1)C(=O)CSc1ncnc2ccccc12		inactive: -2.82%
COc1cc(/C=C2/C(=N)N3C(=NC2=O)SN=C3S(C)(=O)=O)ccc1OS(=O)(=O)c1ccc(C)cc1	inconclusive: 28.2 µM [inhibitor, partial curve, poor fit]	
CN1CC2(CCN(Cc3cccs3)CC2)CC(c2ccccc2)C1=O (centres undefined)		inactive: 12.5%
Cc1cccc(NC(=O)C2c3ccccc3C(=O)N3CCc4ccccc4C23)n1 (centres undefined)	inconclusive: 31.6 µM [inhibitor, partial curve, poor fit]	
CCc1cc(-c2onc(C)c2-c2cscn2)c(O)cc1OC	inconclusive: 50.1 µM [inhibitor, partial curve, poor fit]	
Cc1c(NCC(=O)Nc2ccccc2C(C)C)cccc1C(=O)N1CCc2sccc2C1		inactive: 4.14%
Cc1ccc(N(CC(=O)NCc2ccc3c(c2)OCO3)C(=O)CCC(=O)Nc2ccccn2)cc1		inactive: -14%
CCOC(=O)c1cnc2ccc(C(=O)OC)cc2c1Nc1cc(C)ccc1OC		inactive: 0.384%
COCCNC(=O)CSc1nc2ccccc2nc1Cc1ccc(C)cc1	inconclusive: 2.51 µM [inhibitor, full curve, poor fit]	
O=C(NCc1cccc(Cl)c1)c1cc2cc(Cl)ccc2[nH]1		inactive: 36.4%
Cc1ccccc1N1CCN(CCCN2C(=O)CC(=C(c3ccccc3)c3ccccc3)C2=O)CC1	inconclusive: 22.4 µM [inhibitor, partial curve, poor fit]	
O=C(NCc1n[nH]c(=S)n1-c1ccc(Cl)c(Cl)c1)c1cccs1	inconclusive: 89.1 µM [inhibitor, single point]	
COc1ccc(OC)c(S(=O)(=O)NC2CCSc3ccccc32)c1 (centres undefined)	inconclusive: 112 µM [inhibitor, single point]	
COc1ccc(C(=O)N2CCC(N3CC4CC(C3)[C@H]3CCCC(=O)N3C4)CC2)c(OC)n1 (some centres undefined)	inconclusive: 31.6 µM [inhibitor, single point]	
CCOC(=O)c1c(-c2ccc(OC)cc2)csc1NC(=O)C1CCCO1 (centres undefined)	inconclusive: 50.1 µM [inhibitor, partial curve, poor fit]	
Cc1c(C(=O)OCC(=O)NCC2CCCO2)sc2ccccc12 (centres undefined)		inactive: -16.2%
CCOC(=O)c1c(-c2ccc(F)cc2)csc1NC(=O)C1CC=CCC1C(=O)O (centres undefined)	inconclusive: 50.1 µM [inhibitor, partial curve, poor fit]	
NC(=O)c1[nH]cnc1N=NN(CCO)Cc1ccccc1		inactive: 1.22%
CC1(C(=O)NS(=O)(=O)c2cccc(F)c2)CCN1C(=O)C1CCCCC1 (centres undefined)	inconclusive: 63.1 µM [inhibitor, partial curve, poor fit]	

Source: PubChem BioAssay AID1671190 (National Center for Advancing Translational Sciences (NCATS), 2021)
